Record: PubChem BioAssay AID1259308 (NCATS, 2017)

Aim: 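Knock-downs that increase output of a recombinant reporter protein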 (primary screen)
Cell system: human HEK293 embryonic kidney cells stably expressing firefly luciferase (HEK-CMV-Luc2-Hygro)
Reagent: single siRNA against human genes, 0.8 pmol siRNA per well
Duration: 72 h
Read-out: 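Luciferase light (ONE-Glo) measured on one replicate plate set and viability (CellTiter-Glo) on the other, scaled to a negative control siRNA, with robust z-scores and luciferase per cell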
Direction: total luciferase, z-score: higher = more reporter protein produced
Active means: 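Active when the median/MAD z-score for overall luciferase is greater than 3; a gene was taken forward for validation with new siRNAs if at least two of its three siRNAs passed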
Meaning of the calls: active = raised luciferase; inactive = no rise
Shown is an unselected part of about 59,000 reagents. About 1,510 of all reagents (2.6%) were called active. 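Calls use total luciferase alone and ignore viability, so some active siRNAs may act by altering cell number.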 Entries without a mark were called inactive. The numbers tell different reagents against one gene apart. Further read-outs or replicates are left out here.

Against LIMK2 #1, the values are total luciferase, z-score -1.35.
LIMK2 #2 gave total luciferase, z-score 0.864.
With knock-down of LIMK2 #3, the screen gave total luciferase, z-score -1.44.
PAWR #1 scored total luciferase, z-score 1.91.
With knock-down of PAWR #2, the screen gave total luciferase, z-score 0.75.
Depletion of PAWR #3 came out at: total luciferase, z-score -0.412.
For CEP162 #1 the deposit lists total luciferase, z-score 1.08.
CEP162 #2 showed total luciferase, z-score -0.611.
Against CEP162 #3 the deposit lists total luciferase, z-score -0.064.
RPS21 #1 gave total luciferase, z-score -1.59.
With knock-down of RPS21 #2, the record shows total luciferase, z-score -1.15.
RPS21 #3 gave total luciferase, z-score -3.07.
For CNOT8 #1, the entry reads total luciferase, z-score 0.925.
Depletion of CNOT8 #2 gave: total luciferase, z-score 1.55.
With knock-down of CNOT8 #3, the record shows total luciferase, z-score 1.32.
CDC42EP5 #1 gave total luciferase, z-score 2.3.
Silencing of CDC42EP5 #2 came out at: total luciferase, z-score -0.214.
Knock-down of CDC42EP5 #3 came out at: total luciferase, z-score 1.81.
After knock-down of ZCCHC3 #1 the results were total luciferase, z-score -0.84.
Silencing of ZCCHC3 #2 gave: total luciferase, z-score 0.123.
ZCCHC3 #3 showed total luciferase, z-score 0.136.
After knock-down of RNASE1 #1 the results were total luciferase, z-score 0.537.
RNASE1 #2 gave total luciferase, z-score 2.33.
RNASE1 #3 showed total luciferase, z-score 1.69.
Silencing of NDRG1 #1 resulted in: total luciferase, z-score -0.767.
NDRG1 #2 scored total luciferase, z-score -1.2.
After knock-down of NDRG1 #3 the results were total luciferase, z-score 0.0195.
CRMP1 #1 gave total luciferase, z-score 0.464.
With knock-down of CRMP1 #2 the results were total luciferase, z-score -0.313.
CRMP1 #3 scored total luciferase, z-score 0.594.
For CD33 #1 the deposit lists total luciferase, z-score 0.497.
After knock-down of CD33 #2 the results were total luciferase, z-score -0.93.
With knock-down of CD33 #3, the screen gave total luciferase, z-score -0.0138.
